In patent publication US20250270306A1 (OSPEDALE SAN RAFFAELE S R L, published 2025):
Results are given in words; binding and its absence hold for the method and conditions named. Some binding calls cover weakened binding; strength is not graded here.

Amino acid sequences for entries named in this document (tags omitted). Residues count along the entry.
UniProt P17936, residues 28-291: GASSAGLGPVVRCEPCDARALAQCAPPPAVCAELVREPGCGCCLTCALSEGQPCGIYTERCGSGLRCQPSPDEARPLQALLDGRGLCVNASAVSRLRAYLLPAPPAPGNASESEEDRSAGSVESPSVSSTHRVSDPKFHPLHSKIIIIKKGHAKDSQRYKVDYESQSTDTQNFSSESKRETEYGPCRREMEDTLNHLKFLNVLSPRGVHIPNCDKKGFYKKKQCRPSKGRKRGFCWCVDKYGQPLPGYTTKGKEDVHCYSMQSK

What was measured:
Recombinant human IGFBP3 [1] = biological target: T1, Recombinant human IGFBP3 (human, UniProt P17936 28-291); assay: sandwich ELISA: plate coated with LSBio LS-C45037 anti-IGFBP3 mAb; premix of IGFBP3 and ecto-TMEM219 1:1 added; bound ecto-TMEM219 detected through its His tag
Recombinant human IGFBP3 [2] = biological target: T1, Recombinant human IGFBP3; assay: ELISA: plate coated with rhIGFBP3 4 µg/ml; ecto-TMEM219 10 µg/ml; detection anti-HisTag HRP

B1: ecto-TMEM219 (receptor)
chain: THRTGLRSPDIPQDWVSFLRSFGQLTLCPRNGTVTGKWRGSHVVGLLTTLNFGDGPDRNKTRTFQATVLGSQMGLKGSSAGQLVLITARVTTERTAGTCLYFSAVPGILPSSQPPISCSEEGAGNATLSPRMGEECVSVWSHEGLVLTKLLTSEELALCGSR
notes: it is put last here only for want of better knowledge; also called EctoTMEM-His; extracellular domain of TMEM219; not shown: His tag (detected with anti 6xHis tag HRP)
binding (Recombinant human IGFBP3 [1]): binds
binding (Recombinant human IGFBP3 [2]): binds
